Among all 330,000 compounds or so, about 1,000 (0.3%) were called active. Inconclusive results, whose numbers are uncertain, are shown with a selection of clear calls. Calls follow the shape of the dose curve; as a rule, active = well fitted inhibition curve with a large enough effect; inconclusive = small, poorly fitted or top-dose-only effect; inactive = no such curve, though single readings can be large or run the other way; tested in mouse RAW 264.7 cells. Potencies of inconclusive entries are doubtful fits and often do not repeat.
Assay: qHTS for Inhibitors of Cell Surface uPA Generation; also: nearly all actives have a fitted effect of over 55% in size
Conditions: cell surface uPA generation assay; series mostly up to 38.3 µM
Procedure, shortened: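 Murine RAW 264.7 cells are treated for 24 h with compound up to 38.3 uM final. Cell ATP, measured by ATP-Lite, remains high if blocking the uPA cascade prevents LF from reaching the cytoplasm.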
Potency is read from the fitted curve at half-maximal effect.

| Structure (SMILES) | Potency |
| --- | --- |
| CC1Cc2ccccc2N1C(=O)CCn1c(=O)sc2ccccc21 (stereo not given) | inconclusive: 12.6 µM [inhibitor, single point] |
| CCOc1ccc(CSC(=N)N)cc1Cl | inconclusive: 8.91 µM [inhibitor, single point] |
| COc1ccc(-c2cc(=O)c3c(O)cc(O)cc3o2)cc1 | inconclusive: 10 µM [inhibitor, single point] |
| CCOc1ccc(NC(=S)NCc2ccco2)cc1 | inactive |
| Cc1nc(Nc2c(Cl)cccc2Cl)sc1C(=O)Nc1ccccc1 | inactive |
| Cc1csc2ncnc(NCCc3ccccn3)c12 | inconclusive: 7.94 µM [inhibitor, partial curve, poor fit] |
| Cc1cccc(OCC(=O)NCC(=O)N/N=C/c2ccc(O)cc2O)c1 | inconclusive: 11.2 µM [inhibitor, single point] |
| CC(C)(O)C#Cc1ccc(CN2CCCC(CO)(Cc3cccc(Cl)c3)C2)cc1 (stereo not given) | inconclusive: 12.6 µM [inhibitor, single point] |
| CN(c1ccc2nc3ccccc3c(=O)n2n1)C1CCCCC1 | active: 0.794 µM |
| O=C(CCl)Nc1cn(-c2ccccc2)nc1-c1ccccc1 | inconclusive: 10 µM [inhibitor, partial curve, poor fit] |
| CCOC(=O)c1c(N)sc(C(=O)Nc2ccccc2)c1C | active: 7.94 µM |
| CN(C)c1ccc(/C=C(\C#N)c2ccccc2)cc1 | active: 0.891 µM |
| Cc1ccc(S(=O)(=O)N(Cc2ccccc2)c2ccccc2C(=O)NCc2ccco2)cc1 | inconclusive: 0.316 µM [inhibitor, full curve, poor fit] |
| Cc1cc(SCc2ccc([N+](=O)[O-])cc2)nc(=O)[nH]1 | inactive |
| Cc1ccc(NC(=O)COCC(=O)Nc2ccc(F)cc2)cc1 | inconclusive: 6.31 µM [inhibitor, partial curve, poor fit] |
| N#Cc1ccccc1Sc1ccccc1C(=O)NCC(c1ccco1)N1CCCCC1 (stereo not given) | inconclusive: 12.6 µM [inhibitor, partial curve, poor fit] |
| CC(=O)n1cc([C@H]2C=C(C(=O)N3CCN(Cc4ccc5c(c4)OCO5)CC3)O[C@@H](OCCCCO)C2)c2ccccc21 | inconclusive: 31.6 µM [inhibitor, single point] |
| NC(=O)c1ccc(Cn2c(C(=O)c3cc(Cl)c(N)c(Cl)c3)c3ccccc3[n+]2[O-])cc1 | inconclusive: 28.2 µM [inhibitor, single point] |
| CC1(c2ccc3ccccc3c2)NC(=O)N(CC(=O)N2CCN(Cc3ccc(C#N)cc3)CC2)C1=O (stereo not given) | inconclusive: 2 µM [inhibitor, partial curve] |
| COc1ccc(S(=O)(=O)Nc2cccc3c2O[C@@H](CN(C)CC2CC2)[C@@H](C)CN([C@@H](C)CO)C3=O)cc1 | inactive |
| Cc1cc(NS(=O)(=O)c2ccc(NC(=O)c3ccc([N+](=O)[O-])c(Cl)c3)cc2)no1 | inconclusive: 1 µM [inhibitor, single point] |
| CC1Cc2ccccc2N1C(=S)NC(=O)c1ccc(Cl)cc1Cl (stereo not given) | inconclusive: 31.6 µM [inhibitor, single point] |
| Cc1c(Cl)cccc1NC(=S)N1CCC(N(C)CC2CCCO2)CC1 (stereo not given) | inactive |
| COc1ccc([C@H]2CC(=O)C=C(c3cc(Cl)ccc3OC)C2)cc1 | inconclusive: 4.47 µM [inhibitor, partial curve] |

Given bar-delimited: part of the list above
Structure (SMILES) | Potency
CC1Cc2ccccc2N1C(=O)CCn1c(=O)sc2ccccc21 (stereo not given) | inconclusive: 12.6 µM [inhibitor, single point]
CCOc1ccc(CSC(=N)N)cc1Cl | inconclusive: 8.91 µM [inhibitor, single point]
CCOc1ccc(NC(=S)NCc2ccco2)cc1 | inactive
Cc1csc2ncnc(NCCc3ccccn3)c12 | inconclusive: 7.94 µM [inhibitor, partial curve, poor fit]
Cc1cccc(OCC(=O)NCC(=O)N/N=C/c2ccc(O)cc2O)c1 | inconclusive: 11.2 µM [inhibitor, single point]
CC(C)(O)C#Cc1ccc(CN2CCCC(CO)(Cc3cccc(Cl)c3)C2)cc1 (stereo not given) | inconclusive: 12.6 µM [inhibitor, single point]
CN(c1ccc2nc3ccccc3c(=O)n2n1)C1CCCCC1 | active: 0.794 µM
CCOC(=O)c1c(N)sc(C(=O)Nc2ccccc2)c1C | active: 7.94 µM
CN(C)c1ccc(/C=C(\C#N)c2ccccc2)cc1 | active: 0.891 µM
Cc1cc(SCc2ccc([N+](=O)[O-])cc2)nc(=O)[nH]1 | inactive
NC(=O)c1ccc(Cn2c(C(=O)c3cc(Cl)c(N)c(Cl)c3)c3ccccc3[n+]2[O-])cc1 | inconclusive: 28.2 µM [inhibitor, single point]
CC1(c2ccc3ccccc3c2)NC(=O)N(CC(=O)N2CCN(Cc3ccc(C#N)cc3)CC2)C1=O (stereo not given) | inconclusive: 2 µM [inhibitor, partial curve]
COc1ccc(S(=O)(=O)Nc2cccc3c2O[C@@H](CN(C)CC2CC2)[C@@H](C)CN([C@@H](C)CO)C3=O)cc1 | inactive
Cc1cc(NS(=O)(=O)c2ccc(NC(=O)c3ccc([N+](=O)[O-])c(Cl)c3)cc2)no1 | inconclusive: 1 µM [inhibitor, single point]
CC1Cc2ccccc2N1C(=S)NC(=O)c1ccc(Cl)cc1Cl (stereo not given) | inconclusive: 31.6 µM [inhibitor, single point]
Cc1c(Cl)cccc1NC(=S)N1CCC(N(C)CC2CCCO2)CC1 (stereo not given) | inactive

(continued)

| Structure (SMILES) | Potency |
| --- | --- |
| CCC(C)(C)NC(=O)/C=C/c1cnc2ccccc2n1 | inconclusive: 10 µM [inhibitor, partial curve] |
| CN1CCN(C(=O)CSc2nc3ccc(NC(=O)c4ccccc4F)cc3s2)CC1 | inconclusive: 6.31 µM [inhibitor, partial curve, poor fit] |
| Cc1cc(/C=N/NC(=O)c2ccccc2F)c(C)n1-c1ccccc1 | inconclusive: 15.8 µM [inhibitor, single point] |
| CCCCCOC(=O)C1=C(C)NC(=O)NC1c1ccc2c(c1)OCO2 (stereo not given) | inactive |
| C=C1CC2C(CCC3(C)C2CCC3(O)C(C)=O)C2(C)CCC(=O)C=C12 (stereo not given) | inactive |
| C=CCOC(=O)C1=C[C@@H](c2csc3ccccc23)C[C@@H](OCc2ccc(CO)cc2)O1 | inconclusive: 12.6 µM [inhibitor, single point] |
| COc1cc(-c2nc3ccccc3c(=O)n2N)cc(OC)c1OC | inconclusive: 2.82 µM [inhibitor, single point] |
| O=C(Nc1ccccc1)c1ccccc1OS(=O)(=O)c1ccccc1 | inactive |
| O=C(NC1=NCCS1)c1ccc(-c2ccc(Cl)cc2)o1 | inactive |
| CCCc1cc(=O)oc2c3c(cc(OCC(=O)N4CCC[C@H]4C(=O)O)c12)OC(C)(C)CC3 | inactive |
| Cc1ccccc1C(=O)Nc1nnc(-c2ccc(F)cc2)o1 | inconclusive: 28.2 µM [inhibitor, single point] |
| COc1cccc(CNC(=O)CCCCCNC(=O)N2CCn3c2nc2ccccc23)c1 | inactive |
| Nc1ccc(C(=O)OCCc2ccccc2)cc1 | inconclusive: 5.01 µM [inhibitor, partial curve, poor fit] |
| CCn1cc[n+](C)c1P(c1ccccc1)c1ccccc1 | inconclusive: 12.6 µM [inhibitor, partial curve, poor fit] |
| Cc1ccccc1Cn1cc(NC(=O)c2cc(-c3ccco3)on2)cn1 | inconclusive: 2.82 µM [inhibitor, full curve] |
| CCOC(=O)Nc1csnn1 | inactive |
| Cc1ccc(CN2C(=O)C[C@@H](NC(=O)OCC3c4ccccc4-c4ccccc43)C/C=C\C2c2ccc(C)cc2)cc1 (stereo not given in full) | inconclusive: 8.91 µM [inhibitor, partial curve] |
| CCCC(=O)Nc1nc2ccc(S(=O)(=O)N3CCCCC3)cc2s1 | inconclusive: 1.12 µM [inhibitor, full curve, poor fit] |
| CC1CCC(=O)N(CCSc2ccccc2)CC1 (stereo not given) | inconclusive: 5.01 µM [inhibitor, partial curve, poor fit] |
| Cc1ccc(O)c(NC(=S)NC(=O)/C=C/c2ccccc2)c1 | inactive |
| CC[C@@]12C(=O)N(c3ccc(C)cc3)C(=O)N1[C@H](c1ccc(Br)cc1)[C@@H]1C(=O)N(C(C)(C)C)C(=O)[C@@H]12 | inconclusive: 1.12 µM [inhibitor, single point] |
| CCCCCCCCNS(=O)(=O)CCNC1CCCCC1 | inactive |
| CCCCN(C(=O)c1cc2c(s1)CCCC2)c1c(N)n(CCC)c(=O)[nH]c1=O | inconclusive: 0.0079 µM [inhibitor, full curve, poor fit] |
| CC(C)(C)c1ccc(C(=O)Nc2cccc(S(=O)(=O)NC3=NCCC3)c2)cc1 | active: 3.98 µM |

| Structure (SMILES) | Potency |
| --- | --- |
| c1ccc(N/N=C(\Cc2nc3ccccc3[nH]2)c2ccccc2)cc1 | inconclusive: 28.2 µM [inhibitor, single point] |
| Cc1ccc(C(=O)Nc2nc(-c3cccnc3)cs2)o1 | inactive |
| O=C(/C=C/c1ccc(Br)cc1)c1ccc(NC(=O)c2ccco2)cc1 | inactive |
| COc1ccc(-c2sc3cc4c(cc3c2C#CC2(N)CCCCC2)OCO4)cc1 | inactive |
| CCOC(=O)Cn1nc(-c2ccccc2)c2ccccc2c1=O | inconclusive: 1.12 µM [inhibitor, single point] |
| COc1ccc(S(=O)(=O)NCc2cccnc2)cc1Br | inconclusive: 12.6 µM [inhibitor, single point] |
| N#CC1=C(N)SC2(CCCCC2)SC1c1ccccc1 (stereo not given) | inactive |
| Cc1cc(C)nc(SCCCNCc2ccc(Br)cc2)n1 | inconclusive: 14.1 µM [inhibitor, partial curve, poor fit] |
| COCCNC(=S)NCCc1ccc(Cl)cc1Cl | inconclusive: 4.47 µM [inhibitor, full curve, poor fit] |
| CC(=C/c1ccccc1)/C=N/n1c(-c2ccco2)n[nH]c1=S | inactive |
| Cc1ccc(COc2ccsc2C(=O)NN)cc1 | inactive |
| Cn1c(SCC(=O)c2ccc(O)c(O)c2)nnc1-c1ccccc1 | inconclusive: 12.6 µM [inhibitor, single point] |
| COc1cccc(NC(=O)c2ccc3c(O)c(S(=O)(=O)c4ccccc4)c(=O)[nH]c3c2)c1 | inactive |
| CC(=O)n1cc([C@@H]2C=C(C(=O)N3CCN(Cc4ccccc4)CC3)O[C@H](OCc3ccc(CO)cc3)C2)c2ccccc21 | inconclusive: 22.4 µM [inhibitor, partial curve] |
| C(=N\Nc1ccccn1)/c1cccnc1 | inconclusive: 5.01 µM [inhibitor, full curve, poor fit] |
| COc1ccc(-n2c(CNC(=O)COc3ccc(Cl)cc3Cl)n[nH]c2=S)cc1 | inconclusive: 10 µM [inhibitor, partial curve, poor fit] |
| COc1cc(C(=O)Nc2cccc(NC(=O)c3cccs3)c2)cc(OC)c1OC | inactive |
| CC1(C)CC(=O)c2c(S(C)(=O)=O)sc(Br)c2C1 | inconclusive: 11.2 µM [inhibitor, partial curve, poor fit] |
| O=C(c1ccc(Cl)c(S(=O)(=O)NCc2ccccc2)c1)N1CCN(c2ccccn2)CC1 | inconclusive: 11.2 µM [inhibitor, single point] |
| O=C(Cc1cccs1)NCc1ccccc1Br | inconclusive: 1.26 µM [inhibitor, partial curve, poor fit] |
| COc1cc(/C=C(\C#N)c2ccccn2)ccc1OCC(=O)Nc1cccc(C(F)(F)F)c1 | inactive |
| COc1ccc(C(=O)Nc2ccc3[nH]c(-c4cccc(OC)c4)cc(=O)c3c2)cc1 | inconclusive: 0.447 µM [inhibitor, full curve, poor fit] |

Reference: PubChem BioAssay AID540303 (National Center for Advancing Translational Sciences (NCATS), 2011)
